For one experiment, the target named is T1, human BMP-2 (human) (UniProt P12643).
T1 sequence (looked up): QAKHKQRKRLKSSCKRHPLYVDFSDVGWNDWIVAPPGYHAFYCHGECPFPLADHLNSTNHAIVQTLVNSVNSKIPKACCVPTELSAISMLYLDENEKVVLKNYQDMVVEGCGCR
As to the kind of experiment: co-immunoprecipitation with anti-myc 9E10 beads, western blot for BMP-2. (In general: Immunoblotting shows a protein as a band on a membrane.)

In another experiment the target is T2, human BMP-4 (human) (UniProt P12644).
T2 sequence (looked up): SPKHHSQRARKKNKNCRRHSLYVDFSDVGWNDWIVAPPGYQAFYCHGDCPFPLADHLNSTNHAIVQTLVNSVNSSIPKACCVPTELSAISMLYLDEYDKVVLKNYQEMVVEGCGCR
As to the kind of experiment: co-immunoprecipitation with anti-myc 9E10 beads, western blot for BMP-4.

Consider 1 molecule from patent US20040106134A1 (Regeneron, published 2004).

No constants are given. Whether binding was seen depends on the method and setting. Binding seen in cells or lysates may run through a third protein. Some binding calls cover weakened binding; strength is not graded here. Tags and fused reporters may be left off the sequences shown.

B1: human DCR5-myc3 (other)
chain: RKNRPAGAIPSPYKDGSSNNSERWQHQIKEVLASSQEALVVTERKYLKSDWCKTQPLRQTVSEEGCRSRTILNRFCYGQCNSFYIPRHVKKEEESFQSCAFCKPQRVTSVLVELECPGLDPPFRLKKIQKVKQCRCMSVNLSDSDKQTGEQKLISEEDLGGEQKLISEEDLGGEQKLISEEDLGP
notes: Used as serum-free conditioned medium of transiently transfected COS7 cells; also called Human DCR5-myc3 protein; hDCR-5
As to B1, the binding entry with human BMP-2 (human) and in the experiment with human BMP-4 (human) was “binds” in each case.
